Measured values published in paper doi:10.1101/818856.

T1: µ1A with internal YFP-tag (mouse) (UniProt P35585)
T1 sequence: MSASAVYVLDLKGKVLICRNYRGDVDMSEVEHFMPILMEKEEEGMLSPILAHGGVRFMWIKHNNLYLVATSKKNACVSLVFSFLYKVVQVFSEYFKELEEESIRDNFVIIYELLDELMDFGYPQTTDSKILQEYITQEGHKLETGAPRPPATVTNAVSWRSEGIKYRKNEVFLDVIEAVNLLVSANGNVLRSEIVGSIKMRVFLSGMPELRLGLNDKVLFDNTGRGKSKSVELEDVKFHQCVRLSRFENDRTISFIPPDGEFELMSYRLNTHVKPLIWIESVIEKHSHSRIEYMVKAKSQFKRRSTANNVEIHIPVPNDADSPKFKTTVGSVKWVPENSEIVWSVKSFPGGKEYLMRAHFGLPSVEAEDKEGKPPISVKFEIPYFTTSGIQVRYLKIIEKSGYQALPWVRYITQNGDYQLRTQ

T2: µ1B with internal YFP-tag (human) (UniProt Q9Y6Q5)
T2 sequence: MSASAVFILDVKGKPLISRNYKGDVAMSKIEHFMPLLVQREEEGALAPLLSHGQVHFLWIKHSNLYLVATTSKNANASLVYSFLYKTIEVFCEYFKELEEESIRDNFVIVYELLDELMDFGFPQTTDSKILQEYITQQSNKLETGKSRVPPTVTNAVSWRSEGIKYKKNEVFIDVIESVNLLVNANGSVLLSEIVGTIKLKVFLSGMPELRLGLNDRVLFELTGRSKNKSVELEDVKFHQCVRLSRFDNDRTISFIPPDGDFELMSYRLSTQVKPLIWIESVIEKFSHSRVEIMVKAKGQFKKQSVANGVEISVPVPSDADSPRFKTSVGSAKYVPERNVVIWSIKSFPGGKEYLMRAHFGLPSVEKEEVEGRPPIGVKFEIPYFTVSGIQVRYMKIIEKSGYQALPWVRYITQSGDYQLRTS

B1: µ1B with internal YFP-tag (protein, UniProt Q9Y6Q5 1-423)
chain: T2 sequence

Experiments:
Test in all cases: co-IP
[1] = molecular target: T1, µ1A with internal YFP-tag (mouse)
[2] = molecular target: T2, µ1B with internal YFP-tag (human)
[3] = molecular target: T2, µ1B with internal YFP-tag (human); remark: listed apart in the source
[4] = molecular target: γ-adaptin (porcine (endogenous in LLC-PK1))

Row | Molecule | binding [1] | binding [2] | binding [3] | binding [4]
1 | γ-adaptin (porcine (endogenous in LLC-PK1)) | binds | binds | binds | –
2 | clathrin heavy chain (porcine (endogenous in LLC-PK1)) | – | – | binds | –
3 | B1 | – | – | – | binds

Read-outs that look alike come from different tables or passages of the source. These are yes or no findings as the source states them, for the method shown. In cells and extracts the contact can be indirect. Binding calls can cover weak binding; strength is not graded here. Where a sequence is shown, tags or fusion partners need not be part of it.
